The target of this test is Aquaporin-4 (AQP4), normal-length (unextended) protein as the only AQP4 in NoX^Hom mouse brain (mouse (endogenous in mouse brain)) (UniProt P55088). Kind of test: native gel or EMSA; Blue native PAGE (3-12% Bis-Tris, 4°C, pH 7) of brain lysates, 60 ug total protein, with 1% digitonin and 0.25% Coomassie G-250; blot with rabbit anti-AQP4 antibody; tetramer and orthogonal array particle (OAP) bands compared across genotypes, n = 3-4 mice per genotype.

Chains of the proteins cited; added tags and fusions are not shown. Lines headed by an entry give the natural chain unless they say otherwise; changes in a name come on top.
UniProt P55088: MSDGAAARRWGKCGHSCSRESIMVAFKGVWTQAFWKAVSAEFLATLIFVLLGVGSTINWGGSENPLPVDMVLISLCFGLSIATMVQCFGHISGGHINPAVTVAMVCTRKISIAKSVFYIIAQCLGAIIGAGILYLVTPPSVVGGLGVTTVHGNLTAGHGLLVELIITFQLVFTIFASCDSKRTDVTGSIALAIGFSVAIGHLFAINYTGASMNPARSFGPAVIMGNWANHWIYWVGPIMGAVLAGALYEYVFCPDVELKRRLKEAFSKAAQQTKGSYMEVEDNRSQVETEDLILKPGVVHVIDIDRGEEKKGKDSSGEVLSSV

No constants are given. Whether binding was seen depends on the method and setting. Some binding calls cover weakened binding; strength is not graded here.

Turning to “Aquaporin-4 (AQP4), normal-length (unextended) protein as the only AQP4 in NoX^Hom mouse brain (from UniProt P55088-1 1-323)”, the binding result is listed as “binds”.

Source of the values: publication PMC10701521.
